Results deposited as PubChem BioAssay AID652243 (Drosophila RNAi Screening Center, 2013).
Purpose: 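Fly regulators of androgen-dependent reporter output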 (primary screen). Cells: Drosophila S2R+ cells. Reagent: long dsRNA against Drosophila genes. Time to read-out: 72 h (48 h, then 24 h hormone). Conditions: synthetic androgen R1881 at 10 nM for 24 h. Measurement: 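Per-well raw luminescence of the androgen-driven firefly reporter and of the Renilla control, two replicates each, without normalisation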. Reading the numbers: firefly reporter light: higher = more light from androgen-responsive reporter; Renilla control light: higher = more constitutive control signal (cell number, transfection). Active means: 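Hit when the log firefly-to-Renilla ratio dropped or increased by a fixed fold versus the mean of GFP or LacZ controls across duplicate plates; lowering cut given as 1.5 and as 3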. Calls: active = hit: reporter lowered or raised; inactive = no hit.
The deposit covers about 24,000 reagents; this is a random part of those that have a named target and a result. In the full data, 246 (1%) are marked active. 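Plates not normalised; calls are printed but the firefly/Renilla ratio behind them is not deposited; fold cut for lowering reported inconsistently.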 Raw values vary from plate to plate and are shown uncorrected. The numbers tell different reagents against one gene apart. Names joined by + are all predicted targets of the reagent. Not given: the amount of reagent.

| predicted target | dsRNA no. | firefly reporter light, replicate 1 | firefly reporter light, replicate 2 | Renilla control light, replicate 1 | Renilla control light, replicate 2 | call |
| --- | --- | --- | --- | --- | --- | --- |
| Kdm4B (Lysine demethylase 4B) | 1 | 1.11e6 | 1.31e6 | 1.14e6 | 1.21e6 | inactive |
| Kdm4B (Lysine demethylase 4B) | 2 | 2.49e5 | 2.76e5 | 7.07e5 | 8.15e5 | inactive |
| Or98a (Odorant receptor 98a) | 1 | 1.93e5 | 2.46e5 | 2.29e6 | 3.01e6 | inactive |
| Or98a (Odorant receptor 98a) | 2 | 2.95e5 | 2.46e5 | 6.24e5 | 7.55e5 | inactive |
| CG12177 | 1 | 4.96e5 | 5.09e5 | 3.53e6 | 3.51e6 | inactive |
| CG12177 | 2 | 5.58e5 | 4.77e5 | 2.67e6 | 2.23e6 | inactive |
| CG12177 | 3 | 5.78e5 | 5.33e5 | 9.32e5 | 9.32e5 | inactive |
| SCAR | 1 | 1.94e5 | 2.13e5 | 2.33e6 | 2.40e6 | inactive |
| CG14448 | 1 | 2.18e5 | 2.75e5 | 3.14e6 | 3.38e6 | inactive |
| CG14448 | 2 | 8.11e5 | 7.62e5 | 8.24e5 | 7.65e5 | inactive |
| Mdr50 (Multi drug resistance 50) | 1 | 1.03e5 | 1.23e5 | 1.79e6 | 1.79e6 | inactive |
| Mdr50 (Multi drug resistance 50) | 2 | 4.65e5 | 2.43e5 | 4.59e5 | 4.71e5 | inactive |
| CG31460 | 1 | 21349 | 30884 | 2.88e5 | 3.32e5 | inactive |
| Ag5r2 (Antigen 5-related 2) | 1 | 4.65e5 | 4.00e5 | 3.75e6 | 3.57e6 | inactive |
| CecC (Cecropin C) | 1 | 1.42e5 | 1.20e5 | 2.45e6 | 2.38e6 | inactive |
| CG34170 | 1 | 6.19e5 | 6.22e5 | 1.99e6 | 2.18e6 | inactive |
| Cpr51A (Cuticular protein 51A) | 1 | 1.46e5 | 1.40e5 | 1.55e6 | 1.55e6 | inactive |
| eag (ether a go-go) | 1 | 1.10e6 | 3.45e5 | 7.58e5 | 2.97e5 | inactive |
| eag (ether a go-go) | 2 | 4.11e5 | 3.79e5 | 2.37e6 | 3.04e6 | inactive |
| eag (ether a go-go) | 3 | 7.20e5 | 9.41e5 | 9.39e5 | 1.48e6 | inactive |
| CG9084 | 1 | 2.18e5 | 1.92e5 | 1.02e6 | 8.78e5 | inactive |
| Vago | 1 | 5.75e5 | 6.63e5 | 3.59e6 | 4.12e6 | inactive |
| Vago | 2 | 3.31e5 | 3.29e5 | 6.92e5 | 6.63e5 | inactive |
| dsd (distracted) | 1 | 1.15e5 | 2.06e5 | 2.27e5 | 2.86e5 | inactive |
| dsd (distracted) | 2 | 88620 | 1.21e5 | 8.74e5 | 9.49e5 | inactive |
| GstT2 (Glutathione S transferase T2) | 1 | 3.46e5 | 3.15e5 | 2.33e6 | 2.19e6 | inactive |
| Josd (Josephin domain containing) | 1 | 2.03e5 | 2.41e5 | 2.58e6 | 2.61e6 | inactive |
| CG14194 | 1 | 1.48e5 | 1.04e5 | 6.09e5 | 4.08e5 | inactive |
| TBC1d7 + mRpS24 | 1 | 2.48e5 | 2.22e5 | 1.92e6 | 2.79e6 | inactive |
| CG4927 | 1 | 53765 | 73322 | 9.62e5 | 9.62e5 | inactive |
| CG4927 | 2 | 3.24e5 | 3.26e5 | 1.78e6 | 1.34e6 | inactive |
| CG40191 | 1 | 7.06e5 | 7.18e5 | 3.35e6 | 2.88e6 | inactive |
| CG12107 | 1 | 1.55e6 | 1.22e6 | 1.71e6 | 1.88e6 | inactive |
| Snx6 (Sorting nexin 6) | 1 | 1.10e6 | 1.44e6 | 2.23e6 | 2.65e6 | inactive |
| Snx6 (Sorting nexin 6) | 2 | 4.49e5 | 3.75e5 | 1.49e6 | 1.54e6 | inactive |
| xit (xiantuan) | 1 | 83089 | 59674 | 7.12e5 | 5.32e5 | inactive |
| xmas | 1 | 1.39e5 | 2.79e5 | 5.34e5 | 6.12e5 | inactive |
| xmas | 2 | 5.41e5 | 4.76e5 | 9.70e5 | 8.29e5 | inactive |
| Leash | 1 | 95225 | 1.03e5 | 1.89e6 | 1.95e6 | inactive |
| Leash | 2 | 4.86e5 | 3.04e5 | 1.24e6 | 1.09e6 | inactive |
| IKKepsilon (I-kappaB kinase epsilon) | 1 | 77101 | 79154 | 9.26e5 | 7.46e5 | inactive |
| IKKepsilon (I-kappaB kinase epsilon) | 2 | – | – | – | – | inactive |
| IKKepsilon (I-kappaB kinase epsilon) | 3 | – | – | – | – | inactive |
| lectin-21Cb | 1 | 1.37e5 | 1.44e5 | 1.13e6 | 1.11e6 | inactive |
| Cyfip (Cytoplasmic FMR1 interacting protein) | 1 | 1.76e5 | 2.02e5 | 6.65e5 | 5.51e5 | inactive |
| Pxd (Peroxidase) | 1 | 77919 | 65723 | 1.73e6 | 1.67e6 | inactive |
| RhoGAP15B (Rho GTPase activating protein at 15B) | 1 | 1.09e5 | 1.00e5 | 5.79e5 | 6.07e5 | inactive |
| RhoGAP15B (Rho GTPase activating protein at 15B) | 2 | 2.91e5 | 2.52e5 | 3.58e6 | 3.52e6 | inactive |
| mRpL4 (mitochondrial ribosomal protein L4) | 1 | 9.90e5 | 9.19e5 | 2.02e6 | 1.63e6 | inactive |
| rho-7 (rhomboid-7) | 1 | 4.21e5 | 3.59e5 | 1.60e6 | 2.29e6 | inactive |
| Ada2b (transcriptional Adaptor 2b) | 1 | 1.19e5 | 1.18e5 | 2.19e6 | 1.97e6 | inactive |
| CG8087 | 1 | 1.97e5 | 2.14e5 | 2.41e6 | 2.53e6 | inactive |
| CG8087 | 2 | 5.33e5 | 4.30e5 | 8.38e5 | 4.98e5 | inactive |
| sel (seele) | 1 | 4.11e5 | 4.15e5 | 2.23e6 | 2.07e6 | inactive |
| MsR2 (Myosuppressin receptor 2) | 1 | 1.16e5 | 1.93e5 | 2.91e6 | 2.79e6 | inactive |
| MsR2 (Myosuppressin receptor 2) | 2 | 75710 | 1.13e5 | 7.69e5 | 1.05e6 | inactive |
| MsR2 (Myosuppressin receptor 2) | 3 | 4.68e5 | 7.14e5 | 5.88e5 | 7.25e5 | inactive |
| MsR2 (Myosuppressin receptor 2) | 4 | 5.20e5 | 3.33e5 | 6.80e5 | 4.80e5 | inactive |

Targets above whose target name begins with L or l:
| predicted target | dsRNA no. | firefly reporter light, replicate 1 | firefly reporter light, replicate 2 | Renilla control light, replicate 1 | Renilla control light, replicate 2 | call |
| --- | --- | --- | --- | --- | --- | --- |
| Leash | 1 | 95225 | 1.03e5 | 1.89e6 | 1.95e6 | inactive |
| Leash | 2 | 4.86e5 | 3.04e5 | 1.24e6 | 1.09e6 | inactive |
| lectin-21Cb | 1 | 1.37e5 | 1.44e5 | 1.13e6 | 1.11e6 | inactive |
